Patent US20040037804A1, “Methods for treatment of asthma” (priority 2002, published 2004)
At least one compound was matched to its structure with a doubt left.

Key:
[1] = test system: 11β-hydroxysteroid dehydrogenase (HSD-1) mRNA expression in human ASM cells; test: Real-time quantitative PCR of 11β-HSD-1 mRNA expression in cultured ASM cells; type: cell-based; details: relative to control (untreated) ASM cells, DEX 1 μM, IL-1β/TNF-α 5/10 ng/ml
[2] = test system: glucocorticoid response element (GRE)-driven secAP reporter in transfected ASM cells; test: GRE-dependent transcription activation, secreted alkaline phosphatase reporter (pGRE-secAP) chemiluminescence assay; type: cell-based, human; details: 24 hr, relative to control untreated cells
[3] = test system: HSD-2 mRNA expression in human ASM cells; test: PCR of 11β-HSD-2 mRNA expression in cultured ASM cells; type: cell-based; details: data not shown
[4] = test system: airway smooth muscle (ASM) tissues; test: Isometric constrictor responsiveness to acetylcholine in isolated rabbit tracheal ASM rings (organ bath); type: cell-based; details: IL-1β/TNF-α exposed ASM tissues pretreated with DEX (1 μM)

C[C@@H]1C[C@H]2[C@@H]3CCC4=CC(=O)C=C[C@]4(C)[C@@]3(F)[C@@H](O)C[C@]2(C)[C@@]1(O)C(=O)CO [DEX, dexamethasone]
HSD-1 mRNA expression [1]: moderately increased
secretion of alkaline phosphatase [2]: enhanced
HSD-2 mRNA expression [3]: neither DEX or IL-1β/TNF-α alone or in combination had a systematic effect
heightened constrictor responses to ACh in IL-1β/TNF-α exposed ASM tissues [4]: inhibited
